No constants are given. Whether binding was seen depends on the method and setting. In cells and extracts the contact can be indirect. Binding can be weak; no strength is given. Where a sequence is shown, tags or fusion partners need not be part of it.

The chains behind the UniProt entries cited, without tags or fusion partners. Where a name states a change or a piece, a line headed by the entry shows the natural chain unless it says otherwise.
UniProt O95817: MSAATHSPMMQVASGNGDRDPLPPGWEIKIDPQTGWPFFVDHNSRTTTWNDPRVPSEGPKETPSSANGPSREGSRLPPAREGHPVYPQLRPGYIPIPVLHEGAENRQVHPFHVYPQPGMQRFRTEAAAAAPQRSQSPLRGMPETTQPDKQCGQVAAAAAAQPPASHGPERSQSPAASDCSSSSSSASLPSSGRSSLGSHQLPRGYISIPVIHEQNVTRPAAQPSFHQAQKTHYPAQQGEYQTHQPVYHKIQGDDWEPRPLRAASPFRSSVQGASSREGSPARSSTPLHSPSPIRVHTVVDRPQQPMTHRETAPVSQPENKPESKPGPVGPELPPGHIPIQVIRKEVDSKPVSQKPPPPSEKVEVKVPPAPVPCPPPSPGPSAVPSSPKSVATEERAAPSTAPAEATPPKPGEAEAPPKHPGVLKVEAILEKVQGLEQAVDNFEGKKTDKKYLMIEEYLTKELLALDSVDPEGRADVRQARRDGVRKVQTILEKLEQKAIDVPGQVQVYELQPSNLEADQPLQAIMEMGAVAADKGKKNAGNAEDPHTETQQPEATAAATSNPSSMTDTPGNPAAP

In this test the target is FLAG-BAG3^(IPV1mut, P209L) (human) (UniProt O95817). Briefly: co-IP; anti-FLAG (M2) magnetic beads on the soluble fraction of HEK293 lysates expressing FLAG-BAG3 variants and Myc-HSPB8, 0.4% NP-40 buffer, 4 °C; in Fig. 5f cells treated with 0.5 μM JG-98, 5 μM YM-01 or DMSO.

B1: Myc-HSPB8 (protein, UniProt Q9UJY1 1-196)
chain: MADGQMPFSCHYPSRLRRDPFRDSPLSSRLLDDGFGMDPFPDDLTASWPDWALPRLSSAWPGTLRSGMVPRGPTATARFGVPAEGRTPPPFPGEPWKVCVNVHSFKPEELMVKTKDGYVEVSGKHEEKQQEGGIVSKNFTKKIQLPAEVDPVTVFASLSPEGLLIIEAPQVPPYSTFGESSFNNELPQDSQEVTCT
Take B1: the binding result is “binds”.

(Values after article PMC6297355.)
